PubChem BioAssay AID504791, Drosophila RNAi Screening Center | 2011

- Assay: 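Factors in Argonaute-based small RNA production and activity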 (primary screen)
- Cell system: Drosophila S2-derived reporter cells
- Reagents: long dsRNA against Drosophila genes, about 150-250 ng dsRNA per well (siRNA assay); about 80-120 ng (miRNA assay)
- Time to read-out: about 5 days (siRNA assay); about 4 days (miRNA assay)
- Treatment: copper sulfate induction of reporters: 25 µM (siRNA assay); 200 mM stated (miRNA assay), 1-2 days before reading
- Detection: 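Per-well ratio of Renilla over firefly light, expressed relative to that plate's average ratio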
- Units: stable assay Renilla, run 1 in luminescence; stable assay firefly, run 1 in luminescence
- Active means: 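a well was a first-pass pick when its plate-scaled ratio rose above 1.5 (siRNA assay) or 1.6 (miRNA assay), or dropped below 0.6; a gene counted only if two separate dsRNAs agreed on retest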
The screen tested about 23,000 reagents; this is an unselected part of those with a known target gene and a result. Over the whole deposit, 199 (0.86%) were called active. 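Plate-scaled ratios behind the calls are not deposited; printed light signals are raw; many rows marked increased or decreased are still called inactive.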 A number with no mark means an inactive call. Not given: the direction of the score.

CG18004 (GeneID 36154) [DRSC06705] showed stable assay Renilla, run 1 = 8382; stable assay firefly, run 1 = 6.56e5.
Against FucT6 (GeneID 32122) [DRSC19848] the deposit lists stable assay Renilla, run 1 = 8275; stable assay firefly, run 1 = 4.79e5.
For Syp (GeneID 42460) [DRSC13444] the deposit lists stable assay Renilla, run 1 = 4687; stable assay firefly, run 1 = 5.04e5.
Knock-down of Syp (GeneID 42460) [DRSC15286] came out at: stable assay Renilla, run 1 = 9064; stable assay firefly, run 1 = 4.20e5.
CG7772 (GeneID 32776) [DRSC20056] gave stable assay Renilla, run 1 = 7207; stable assay firefly, run 1 = 4.62e5.
QC (GeneID 38663) [DRSC09736] scored stable assay Renilla, run 1 = 7754; stable assay firefly, run 1 = 4.96e5.
With knock-down of CG31178 (GeneID 42575) [DRSC14590] the results were stable assay Renilla, run 1 = 8375; stable assay firefly, run 1 = 4.18e5.
Depletion of CR31541 (retired record) (GeneID 3772590) [DRSC21876] gave: stable assay Renilla, run 1 = 8155; stable assay firefly, run 1 = 6.38e5.

Reformatted: results already given
gene knocked down,dsRNA,stable siRNA reporter change,miRNA reporter change,"stable assay Renilla, run 1","stable assay firefly, run 1"
CG7772 (GeneID 32776),DRSC20056,,,7207,4.62e5
QC (GeneID 38663),DRSC09736,,,7754,4.96e5

Continued.
Against CG3587 (GeneID 31160) [DRSC18541], the values are stable assay Renilla, run 1 = 4632; stable assay firefly, run 1 = 4.91e5.
For CG3587 (GeneID 31160) [DRSC21966] the deposit lists stable assay Renilla, run 1 = 10310; stable assay firefly, run 1 = 5.51e5.
sick (GeneID 35277) [DRSC02090] showed stable assay Renilla, run 1 = 6938; stable assay firefly, run 1 = 4.49e5.
For sick (GeneID 35277) [DRSC02301] the deposit lists stable assay Renilla, run 1 = 6391; stable assay firefly, run 1 = 5.39e5.
Knock-down of sick (GeneID 35277) [DRSC02302] came out at: stable assay Renilla, run 1 = 5787; stable assay firefly, run 1 = 4.95e5.
With knock-down of sick (GeneID 35277) [DRSC02303] the results were stable siRNA reporter change reporter ratio lowered past the hit cutoff; miRNA reporter change reporter ratio lowered past the hit cutoff; stable assay Renilla, run 1 = 4663; stable assay firefly, run 1 = 5.70e5.
After knock-down of sick (GeneID 35277) [DRSC02306], the record shows stable assay Renilla, run 1 = 8559; stable assay firefly, run 1 = 6.39e5.
